The target of the test is Tom1 VHS domain (human) (UniProt O60784). As to the kind of experiment: SEC + other: dynamic light scattering; Superdex 75 in 50 mM Tris-HCl (pH 7.3), 500 mM NaCl with or without 1 mM DTT; DLS at 25 °C, Tom1 VHS 0.8 mg/ml in 20 mM HEPES (pH 7.4), 150 mM KCl; mass also checked by ESI-MS; both purified.

Protein sequences, listed by entry. Tags and fused reporters are not part of them. Residues count along the entry.
UniProt O60784, residues 20-152: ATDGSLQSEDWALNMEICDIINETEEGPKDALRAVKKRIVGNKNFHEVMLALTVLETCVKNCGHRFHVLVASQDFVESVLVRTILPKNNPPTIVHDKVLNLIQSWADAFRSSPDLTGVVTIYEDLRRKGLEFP

These are yes or no findings as the source states them, for the method shown.

On to “Tom1 VHS domain (from UniProt O60784 20-152) (domain or fragment)”, for which the binding entry is on record as “no binding (tested: 0.8 mg/ml)”.
